Experimental data published in paper PMC10864183.
These are yes or no findings as the source states them, for the method shown. Binding seen in cells or lysates may run through a third protein. Binding can be weak; no strength is given.

The chains behind the UniProt entries cited, without tags or fusion partners. Where a name states a change or a piece, a line headed by the entry shows the natural chain unless it says otherwise.
UniProt A0AAF0Z240: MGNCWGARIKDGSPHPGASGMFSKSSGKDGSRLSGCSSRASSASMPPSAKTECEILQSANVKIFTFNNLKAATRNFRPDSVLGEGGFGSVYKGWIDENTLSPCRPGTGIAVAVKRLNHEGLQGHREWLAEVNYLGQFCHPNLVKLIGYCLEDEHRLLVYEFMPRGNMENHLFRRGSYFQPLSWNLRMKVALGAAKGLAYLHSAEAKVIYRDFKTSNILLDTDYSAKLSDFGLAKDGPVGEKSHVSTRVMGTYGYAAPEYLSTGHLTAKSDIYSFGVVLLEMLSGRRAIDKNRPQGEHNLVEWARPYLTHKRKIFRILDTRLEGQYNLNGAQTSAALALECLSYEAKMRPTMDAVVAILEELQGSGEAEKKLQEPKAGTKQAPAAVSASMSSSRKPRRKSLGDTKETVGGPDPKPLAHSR
UniProt A0AAF0Z3N3: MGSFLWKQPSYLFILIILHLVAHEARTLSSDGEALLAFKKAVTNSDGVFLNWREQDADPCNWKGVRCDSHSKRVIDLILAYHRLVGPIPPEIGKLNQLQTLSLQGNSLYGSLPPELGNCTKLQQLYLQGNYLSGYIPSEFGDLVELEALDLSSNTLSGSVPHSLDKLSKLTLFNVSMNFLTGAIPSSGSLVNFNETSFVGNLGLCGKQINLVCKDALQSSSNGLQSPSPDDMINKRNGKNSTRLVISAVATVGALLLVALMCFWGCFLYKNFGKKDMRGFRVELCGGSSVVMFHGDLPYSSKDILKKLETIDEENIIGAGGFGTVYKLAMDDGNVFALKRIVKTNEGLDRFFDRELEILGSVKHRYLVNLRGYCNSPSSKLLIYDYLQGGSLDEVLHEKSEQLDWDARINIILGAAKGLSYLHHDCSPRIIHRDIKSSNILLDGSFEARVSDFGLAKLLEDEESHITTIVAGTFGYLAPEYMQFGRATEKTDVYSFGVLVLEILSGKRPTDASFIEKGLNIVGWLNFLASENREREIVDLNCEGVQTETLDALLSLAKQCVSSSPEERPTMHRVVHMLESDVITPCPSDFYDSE

Key:
Test in all cases: split reporter; split-luciferase complementation (SLC); cLUC and nLUC fusions co-infiltrated into N. benthamiana leaves, 1 mM luciferin sprayed two days after, luminescence imaged
[1] = molecular target: ZmWIK-nLUC (maize (Zea mays))
[2] = molecular target: ZmWAKL^Y-nLUC (maize (Zea mays), inbred line Y32)
[3] = molecular target: ZmWAKL^Q-nLUC (maize (Zea mays), inbred line Q11)
[4] = molecular target: cLUC-ZmWAKL^Q (maize (Zea mays), inbred line Q11)

binding [1] | binding [2] | binding [3] | binding [4] | Substance
binds | binds | binds | – | cLUC-ZmBLK1 (from UniProt A0AAF0Z240) (enzyme)
– | – | – | binds | ZmWIK-nLUC (from UniProt A0AAF0Z3N3) (receptor)
